# Source: publication PMC7819943, “Rice protein-binding microarrays: a tool to detect cis-acting elements near promoter regions in rice”
# By UniProt entry, the sequences of proteins in these tests, tags left out.
# UniProt Q0JBA9, entry or part of it: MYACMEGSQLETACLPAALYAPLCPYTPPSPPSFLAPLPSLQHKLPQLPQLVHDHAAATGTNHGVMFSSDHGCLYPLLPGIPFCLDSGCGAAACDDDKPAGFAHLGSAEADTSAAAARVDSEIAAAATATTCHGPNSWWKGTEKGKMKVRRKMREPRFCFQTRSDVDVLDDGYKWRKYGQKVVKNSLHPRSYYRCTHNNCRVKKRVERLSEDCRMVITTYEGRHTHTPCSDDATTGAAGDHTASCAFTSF
# This is one part of the list.
# Target: OsWRKY34 (Oryza sativa, UniProt Q0JBA9 1-250)
# Experiment: protein-binding microarray (RPBM); PBS, 2% BSA, 51.3 ng/ul salmon testes DNA, 50 uM zinc acetate, 200 nM TF, 25 C, 1 h; high values mean tight binding
# Details: protein: recombinant; tags: N-terminal polyhistidine and DsRed monomer fusion (pET32a); label: CyDye5-dUTP incorporated in the synthesized complementary strand; 3' TTTTT single-stranded linker to array surface; dsDNA, one strand shown
# How it was run: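 Binding signal is reported as fluorescence intensity per feature (arbitrary units) from an Axon 4000B scanner. Incubation used 200 nM of each Ni–NTA-purified, N-terminally polyhistidine- and DsRed-fused transcription factor from E. coli BL21-CodonPlus on a double-stranded custom Agilent array for 1 h at 25 °C, with 50 µM zinc acetate in the buffer, followed by washing.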
row,Sequence,binding signal
1,GGATTTTAGAACTTGCAGCCTCGTATTTTTATTTATGCTTCGGAGTCACCTAGTGCAG,11700 fluorescence intensity (a.u.)
2,CGGATGGGGCTAAGGTCGTCGGGGTAGGCGGCGCGGACATCGGAGTCACCTAGTGCAG,10900 fluorescence intensity (a.u.)
3,ATCAACCGCCGTCTCTTCCATTCTCAACTCCAATCCTCATCGGAGTCACCTAGTGCAG,9690 fluorescence intensity (a.u.)
4,CTATAGCTCAACAAATGGTTTCGCTCGTCACTCTTTCTTTCGGAGTCACCTAGTGCAG,8050 fluorescence intensity (a.u.)
5,TCGTCACGCTGTTATTCTCTCTTCGATTTGTTTATCAATTCGGAGTCACCTAGTGCAG,8600 fluorescence intensity (a.u.)
6,CACACCTCACAACGCCCCTTACGCCCACGCGAGCGAACCCCGGAGTCACCTAGTGCAG,8240 fluorescence intensity (a.u.)
7,GCCCACATCCATCCCGTCACCCGCCCACTCGCCGTCGCACCGGAGTCACCTAGTGCAG,10300 fluorescence intensity (a.u.)
8,CTGCCGAAGCAACGGATCTGAATCTACGTACCGAGCTTGTCGGAGTCACCTAGTGCAG,64600 fluorescence intensity (a.u.)
9,CTCTCGCCTCGCCTCGGCGTCGCGCGCCGCGCGCCGTTTTCGGAGTCACCTAGTGCAG,9580 fluorescence intensity (a.u.)
10,TCCGTATTTTAATGTATGACGCCGTTGACTTTTTATCCAACGGAGTCACCTAGTGCAG,21400 fluorescence intensity (a.u.)
11,TTCGCGCGCAACTCCTTAAACCCTAGCCGCCGCCGCCGCCCGGAGTCACCTAGTGCAG,9270 fluorescence intensity (a.u.)
12,CCAGTCACCACCATGAACTTATTGCCATTGACCTGCTTACCGGAGTCACCTAGTGCAG,9360 fluorescence intensity (a.u.)
13,TTCTGGTTTGCTTCAATGGCTTGAATTCACAAAACTTAGTCGGAGTCACCTAGTGCAG,9640 fluorescence intensity (a.u.)
14,GGTGTGTTTGGTTGGGTGGATGAACTCGGATGGGAGATGGCGGAGTCACCTAGTGCAG,10800 fluorescence intensity (a.u.)
15,CTATCTACCACAAGGCCAAGTTACGTTAGACCGTTTTGATCGGAGTCACCTAGTGCAG,8660 fluorescence intensity (a.u.)
16,AATATGGCCCGTTATCATCACCATTGGTTCCTACAGTAGTCGGAGTCACCTAGTGCAG,8510 fluorescence intensity (a.u.)
17,CGTCGACCCACTGCTGCCGGCCTCGCGAGTTCACCCACCACGGAGTCACCTAGTGCAG,8310 fluorescence intensity (a.u.)
18,CCTCCCGATCGACGCCTTCTGCTGCTTCTGATTCGCCGCTCGGAGTCACCTAGTGCAG,8500 fluorescence intensity (a.u.)
19,CCATCGCTGTCGCCAATTTATATTCTTTCTTAATCTCGACCGGAGTCACCTAGTGCAG,9220 fluorescence intensity (a.u.)
20,CCGCCTACCACCCGTGCCCCGACCCATTACATGTGCACACCGGAGTCACCTAGTGCAG,11600 fluorescence intensity (a.u.)
21,AGGTTTTGTTCTGAGGAATTTCTCTCTTCTTTTTTTTTCTCGGAGTCACCTAGTGCAG,10500 fluorescence intensity (a.u.)
22,TCACAGTACTCCTTCACAACCGTGTCCTTGATTCTGGAACCGGAGTCACCTAGTGCAG,9070 fluorescence intensity (a.u.)
23,GCTGACGCACAAGAATTCTTTTTTTCTCTCAAAATCTTTTCGGAGTCACCTAGTGCAG,8860 fluorescence intensity (a.u.)
24,CTGCATTCCTATCCAAGCTCGCCTTAACCGCCGAATCTCCCGGAGTCACCTAGTGCAG,8380 fluorescence intensity (a.u.)
25,TTCTACCTCGCATTTCTCTCATCTCCCTTTCCACAATTCCCGGAGTCACCTAGTGCAG,8990 fluorescence intensity (a.u.)
26,TTTGGCACAGCATCACATATATGTTTGACTCTACATTCTCCGGAGTCACCTAGTGCAG,8100 fluorescence intensity (a.u.)
27,CCTCCGACCTAAAATATAACAACTTTCAGCCTCTAGAATTCGGAGTCACCTAGTGCAG,8910 fluorescence intensity (a.u.)

row,Sequence,binding signal
1,CCATATATGTTTTTTTACTATACTATTTTATCTATATAGTCGGAGTCACCTAGTGCAG,10300 fluorescence intensity (a.u.)
2,TTCCGCCCACAGCCGCCGGAGCCACCTCCCGCTCCTCTCCCGGAGTCACCTAGTGCAG,8440 fluorescence intensity (a.u.)
3,ACACTTTGATCCCGATCGATGGCGCCATCCACTAATTGATCGGAGTCACCTAGTGCAG,10700 fluorescence intensity (a.u.)
4,CTCCTCTATCCGAGCAACGACGCCGCCGACTTTTCCAGACCGGAGTCACCTAGTGCAG,10600 fluorescence intensity (a.u.)
5,TCACCACTAATATTTCTCGTGATACGGTTTGGCTTATTTTCGGAGTCACCTAGTGCAG,11500 fluorescence intensity (a.u.)
6,AGAAGCAGTGCTGTCTCCCAGCCTCACGCGTCCTCTTTTTCGGAGTCACCTAGTGCAG,8930 fluorescence intensity (a.u.)
7,CCTTTCTTCTTCCGCCTCTCCTCCATGGCGTGACCTGACTCGGAGTCACCTAGTGCAG,9000 fluorescence intensity (a.u.)
8,CTTCGATTGGTTTGTTGGTTTGACTGGAATTCGGATGGATCGGAGTCACCTAGTGCAG,10100 fluorescence intensity (a.u.)
9,TGTTCTCTACTCCTATGGCCAATTAATCATCAATCTCTCACGGAGTCACCTAGTGCAG,10900 fluorescence intensity (a.u.)
10,CTGCACATGATTTCAATCTACTATGGACATTCTCACTCTCCGGAGTCACCTAGTGCAG,12100 fluorescence intensity (a.u.)
11,GTCGAAACCGCAAAACCGCCTCTCTCTCTCTCTCTCTCTCCGGAGTCACCTAGTGCAG,8720 fluorescence intensity (a.u.)
12,TTGTTGCGCAGTGCCTGCCCCTGCCACGCCGCGTAGGACTCGGAGTCACCTAGTGCAG,8660 fluorescence intensity (a.u.)
13,CGTGCCTCTCCTCCTCCGCCGCCCAACATCACTGGCGTCGCGGAGTCACCTAGTGCAG,8430 fluorescence intensity (a.u.)
14,GACACCTACTAGTTTAGCCATCTGCTGGTCTCGATCTCCTCGGAGTCACCTAGTGCAG,9730 fluorescence intensity (a.u.)
15,CTTCATACCACATCTCCTCCAGTTCTCTCTCCTCCTCCGTCGGAGTCACCTAGTGCAG,8720 fluorescence intensity (a.u.)
16,TAGTTATTCTAGGGGAGGGGTGTAGAATAGATTCACTATACGGAGTCACCTAGTGCAG,9720 fluorescence intensity (a.u.)
17,CTGCCTGCAGCTCACCACACTCCACCAGTTGTCCAGTTCACGGAGTCACCTAGTGCAG,10300 fluorescence intensity (a.u.)
18,TCCAATCCTGTCAGCTATTTCTCAGTGTCACGGTATTTCGCGGAGTCACCTAGTGCAG,12200 fluorescence intensity (a.u.)
19,GGTAGGCTCCATCCGCGTAGGCATATGATTCTTGGATGATCGGAGTCACCTAGTGCAG,8870 fluorescence intensity (a.u.)
20,GCGGGTCGGGGCAGGCGAAGCGGTCAAAACGTACTTAAAACGGAGTCACCTAGTGCAG,8090 fluorescence intensity (a.u.)
21,TTTTGTTCATTGTTTCTCGGTAAAATTTCTGCAATTTTGTCGGAGTCACCTAGTGCAG,10600 fluorescence intensity (a.u.)
22,GCTCCACCGCCGTCGTCTCCGCCTTCTTCCTCGCCTGCGGCGGAGTCACCTAGTGCAG,11100 fluorescence intensity (a.u.)
23,CCTGATACAAATTTTGACAATTTGACTTTTTGCAAAAACTCGGAGTCACCTAGTGCAG,8900 fluorescence intensity (a.u.)
24,CCCTTCGCTGTCTCTCACGCCGCCACCCTTCCCAGTCTTCCGGAGTCACCTAGTGCAG,8570 fluorescence intensity (a.u.)
25,GTTGGTCTGACCATATTCTTTATTTTTATTGTTTTGTACACGGAGTCACCTAGTGCAG,12700 fluorescence intensity (a.u.)
26,TTCTCCTTATTGTTGTTGTCGTCCTTCTTCTTCTCCAGTCCGGAGTCACCTAGTGCAG,8730 fluorescence intensity (a.u.)
27,TGTTGCGCTATTCTTTGCTTCGGTGGTACGTTGCCGACCACGGAGTCACCTAGTGCAG,10400 fluorescence intensity (a.u.)

# Fetched one by one from the list above:
row,Sequence,binding signal
7,CCTTTCTTCTTCCGCCTCTCCTCCATGGCGTGACCTGACTCGGAGTCACCTAGTGCAG,9000 fluorescence intensity (a.u.)
15,CTTCATACCACATCTCCTCCAGTTCTCTCTCCTCCTCCGTCGGAGTCACCTAGTGCAG,8720 fluorescence intensity (a.u.)
22,GCTCCACCGCCGTCGTCTCCGCCTTCTTCCTCGCCTGCGGCGGAGTCACCTAGTGCAG,11100 fluorescence intensity (a.u.)
2,TTCCGCCCACAGCCGCCGGAGCCACCTCCCGCTCCTCTCCCGGAGTCACCTAGTGCAG,8440 fluorescence intensity (a.u.)
